Results from the supplement of paper PMC12889115.
The list shows a part of the results. These are raw signals, not scaled to a control.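 First-pass screen: polymyxin B was added at a level that permeabilizes the Salmonella outer membrane while sparing the inner membrane. DMSO wells, with and without polymyxin B, defined maximum growth. Because plates differed from one another, each plate's data were ranked separately and the compounds with the lowest OD600 were carried forward as hits.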

Test system: Salmonella enterica serovar Typhimurium SL1344
Test: bacterial growth OD600 after 18 h with compound and polymyxin B; higher = more bacterial growth (less inhibition)
Conditions: 50 µM, Mueller-Hinton broth

SMILES | bacterial growth OD600 (polymyxin B 0.75 µg/mL) | bacterial growth OD600 (polymyxin B 1 µg/mL)
CCOC(=O)N1CCN(Cc2nc(-c3ccc(C)s3)oc2C)CC1 | 0.758 | 
C[C@@H]1CN(C2(C(=O)NCCc3cccnc3)Cc3ccccc3C2)C[C@H](C)O1 | 0.78 | 
CCN1CCN(C2(C(=O)N(C)CC(O)c3ccccc3)Cc3ccccc3C2)CC1 (stereo not drawn) | 0.833 | 
CC(C)n1cc(C(=O)NCc2ccccc2)c(=O)c(C(=O)N2CCN(c3ccc(F)cc3)CC2)c1 | 0.715 | 
COc1ccc(NC(=O)CCC2CCCN(C(=O)CCn3cnnn3)C2)cc1Cl (stereo not drawn) |  | 0.989
COc1cc(C)ccc1OCc1nc(C(=O)N(C)C2CCCCC2)co1 | 0.631 | 
CCN(CC)C(=O)C1CCCN(Cc2nc(C3(c4ccc(C)cc4)CCCC3)no2)C1 (stereo not drawn) |  | 0.471
COc1ccc(CCN2CCC(CN(C)C(=O)C3=C(C)OCCO3)CC2)cc1 |  | 0.982
COc1cc(CC2(CCC(=O)NCCC3=CC[C@H]4C[C@@H]3C4(C)C)CCC(=O)N2)ccc1F (stereo partly drawn) | 0.895 | 
CC(CCn1cccn1)N1CCc2onc(-c3ccc4c(c3)OCO4)c2C1 (stereo not drawn) | 0.805 | 
CC(C)S(=O)(=O)c1ncc(CN(C)CC2CCOCC2)n1CCc1ccccc1 |  | 1.21
COc1ccc(CCNC(=O)CCN2Cc3ccccc3OC(c3ccccc3F)C2)cc1OC (stereo not drawn) | 0.615 | 
CC(C)N(Cc1nccn1C)C(=O)c1cc(COc2ccccc2F)[nH]n1 | 0.891 | 
CSc1ncccc1C(=O)N1CCCC(Nc2ccc(F)c(F)c2)C1 (stereo not drawn) |  | 0.792
COc1ccc(CN2CCN(Cc3cccc(O)c3)CC2CCO)c(C)c1C (stereo not drawn) |  | 0.859
C=CC[C@@H]1CC=C[C@@H](C)N1Cc1nc(-c2ccc3c(c2)OCO3)no1 |  | 0.822
CCc1nc(C)c(CN(C)CC2CCCN(CCc3ccccc3C)C2)[nH]1 (stereo not drawn) |  | 1
O=C(CCC1(Cc2ccc(-c3ccccc3)cc2)CCC(=O)N1)NCCc1ccccc1F (stereo not drawn) | 0.003 | 
CCOc1ccccc1CN1CCN(Cc2cccc3c2OCO3)CC1CCO (stereo not drawn) |  | 1.16
C=C(C)CNC(=O)c1coc(COc2cccc(OC)c2)n1 |  | 0.92
CCN(CCn1cccn1)Cc1cn(C)nc1-c1cccc(Cl)c1 |  | 0.814
COc1cc(=O)n2c(c1C(=O)NC(C)c1ccco1)CCN(Cc1c(C)nc3sccn13)CC2 (stereo not drawn) | 0.907 | 
O=C(C1CCC1)N1CC[C@@H](N2CCN(CCc3ccccc3)CC2)[C@H](O)C1 |  | 0.943

Structural class, the entries above with fluorine
SMILES | bacterial growth OD600 (polymyxin B 0.75 µg/mL) | bacterial growth OD600 (polymyxin B 1 µg/mL)
CC(C)n1cc(C(=O)NCc2ccccc2)c(=O)c(C(=O)N2CCN(c3ccc(F)cc3)CC2)c1 | 0.715 | 
COc1cc(CC2(CCC(=O)NCCC3=CC[C@H]4C[C@@H]3C4(C)C)CCC(=O)N2)ccc1F (stereo partly drawn) | 0.895 | 
COc1ccc(CCNC(=O)CCN2Cc3ccccc3OC(c3ccccc3F)C2)cc1OC (stereo not drawn) | 0.615 | 
CC(C)N(Cc1nccn1C)C(=O)c1cc(COc2ccccc2F)[nH]n1 | 0.891 | 
CSc1ncccc1C(=O)N1CCCC(Nc2ccc(F)c(F)c2)C1 (stereo not drawn) |  | 0.792
O=C(CCC1(Cc2ccc(-c3ccccc3)cc2)CCC(=O)N1)NCCc1ccccc1F (stereo not drawn) | 0.003 | 
